Assay results: patent publication US20220267441A1
No constants are given. Whether binding was seen depends on the method and setting. Some entries that bind do so weakly or less than the wild type.

The chains behind the UniProt entries cited, without tags or fusion partners. Where a name states a change or a piece, a line headed by the entry shows the natural chain unless it says otherwise.
UniProt P08575: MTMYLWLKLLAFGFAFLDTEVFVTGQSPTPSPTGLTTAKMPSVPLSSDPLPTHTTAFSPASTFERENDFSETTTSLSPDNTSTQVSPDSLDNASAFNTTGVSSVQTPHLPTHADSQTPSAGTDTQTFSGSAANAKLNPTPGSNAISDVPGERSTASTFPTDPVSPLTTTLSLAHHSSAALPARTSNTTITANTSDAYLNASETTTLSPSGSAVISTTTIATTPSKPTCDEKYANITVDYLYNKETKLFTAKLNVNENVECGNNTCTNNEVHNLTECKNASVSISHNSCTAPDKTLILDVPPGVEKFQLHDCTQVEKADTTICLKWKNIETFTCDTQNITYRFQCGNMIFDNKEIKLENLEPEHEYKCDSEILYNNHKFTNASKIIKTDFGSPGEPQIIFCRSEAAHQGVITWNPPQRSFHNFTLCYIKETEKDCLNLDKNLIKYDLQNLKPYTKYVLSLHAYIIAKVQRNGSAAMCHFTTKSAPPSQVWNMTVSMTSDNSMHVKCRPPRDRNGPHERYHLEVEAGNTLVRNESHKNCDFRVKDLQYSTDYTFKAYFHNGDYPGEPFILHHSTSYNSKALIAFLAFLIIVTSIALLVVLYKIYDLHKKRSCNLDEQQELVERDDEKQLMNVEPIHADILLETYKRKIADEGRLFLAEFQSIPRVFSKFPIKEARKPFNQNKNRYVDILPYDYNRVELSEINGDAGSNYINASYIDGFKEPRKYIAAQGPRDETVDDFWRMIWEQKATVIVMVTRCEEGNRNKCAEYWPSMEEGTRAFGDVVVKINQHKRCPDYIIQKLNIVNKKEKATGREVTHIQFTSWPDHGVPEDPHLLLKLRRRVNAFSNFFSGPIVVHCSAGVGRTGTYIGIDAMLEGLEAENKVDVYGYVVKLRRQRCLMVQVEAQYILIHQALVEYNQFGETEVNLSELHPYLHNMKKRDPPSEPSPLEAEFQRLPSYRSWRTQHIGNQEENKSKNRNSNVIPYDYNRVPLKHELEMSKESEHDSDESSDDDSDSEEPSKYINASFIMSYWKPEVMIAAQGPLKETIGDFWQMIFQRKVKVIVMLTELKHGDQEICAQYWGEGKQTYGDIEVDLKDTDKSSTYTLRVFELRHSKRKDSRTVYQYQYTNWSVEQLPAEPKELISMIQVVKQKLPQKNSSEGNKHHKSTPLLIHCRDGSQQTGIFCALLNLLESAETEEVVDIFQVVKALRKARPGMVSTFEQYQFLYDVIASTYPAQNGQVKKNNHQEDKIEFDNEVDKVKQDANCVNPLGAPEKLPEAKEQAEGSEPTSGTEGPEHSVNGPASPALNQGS

Assays:
[1] = target: human CD45 on live cells (REH-1 cells, primary human PBMCs) (human) (UniProt P08575); assay: flow cytometry on human PBMCs
[2] = target: human CD45 on live cells (REH-1 cells, primary human PBMCs) (human) (UniProt P08575); assay: flow cytometry on human PBMCs and REH-1 cells
[3] = target: human CD45 on live cells (REH-1 cells, primary human PBMCs) (human) (UniProt P08575); assay: flow cytometry on REH CD45+ cells, AF488 anti-human IgG secondary antibody
[4] = target: human CD45 on live cells (REH-1 cells, primary human PBMCs) (human) (UniProt P08575); assay: flow cytometry on primary human PBMCs, AF488 anti-human IgG secondary antibody
[5] = target: human CD45 on live cells (REH-1 cells, primary human PBMCs) (human) (UniProt P08575); assay: flow cytometry on primary human PBMCs ('Human binding'), AF488 anti-human IgG secondary antibody

Row | binding [1] | binding [2] | binding [3] | binding [4] | binding [5] | Binder
1 | binds |  |  |  |  | AbC_D265C_LALA_H435A (antibody, human IgG1, kappa, L234A L235A, V domains shown) VH: EVQLVESGGGLVQPGGSLRLSCAASGFTFNNYWMTWVRQAPGKGLEWVSSISSSGGSIYYPDSVKDRFTISRDNAKNSLYLQMNSLRAEDMAVYYCARLYYYDGGGDAWGQGTLVTVSS VL: GIQMTQSPSSLSASVGDRVTITCKASQDINKYLDWYQQKPGKAPKLLIYNTNNLHTGIPSRFSGSGSGTDYTLTISSLQPEDFATYYCLQHISRWTFGGGTKVEIKR
2 |  | binds | binds | binds |  | Ab5 (D265C LALA H435A) (antibody, human IgG1, kappa, L234A L235A, V domains shown) VH: EVQLVESGGGLVQPGGSLRLSCAASGFTFEAYSMNWVRQAPGKGLEWVSYISLSGATIHYADSVKGRFTISRDNAKNSLYLQMNSLRAEDTAVYYCARGGQYYYTSSDYGEVAFDIWGQGTMVTVSS VL: DIVMTQSPLSLPVTPGEPASISCRSSQSLVSSGYNYLDWYLQKPGQSPQLLIYFGSSRASGVPDRFSGSGSGTDFTLKISRVEAEDVGVYYCMQRRRTPWSFGGGTKVEIKR
3 |  | binds | binds | binds |  | Ab7 (D265C LALA H435A) (antibody, human IgG1, kappa, L234A L235A, V domains shown) VH: QVQLVESGGGLVKPGGSLRLSCAASGFTFGGYSMNWVRQAPGKGLEWVSYISISGATITYADSVKGRFTISRDNAKNSLYLQMNSLRAEDTAVYYCARGGQYYYDSSDYGEVAFDIWGQGTMVTVSS VL: DIVMTQSPLSLPVTPGEPASISCRSSQSLVSSGYNYLDWYLQKPGQSPQLLIYFGSSRASGVPDRFSGSGSGTDFTLKISRVEAEDVGVYYCMQRRRTPPFTFGGGTKVEIKR
4 | binds |  |  |  | binds | Antibody B (AbB) (antibody, IgG1, V domains shown) VH: EVQLVESGGGLVQPGGSLRLSCAASGFTFTNFWMAWIRQAPGKGLEWVASISSSGGSIYYPDSVKDRFTISRDNSKNTLYLQMNSLRAEDTAVYYCVKFHHYSGGGDAWGQGTLVTVSS VL: DIQMTQSPSSLSASVGDRVTITCKASQNINKYLDWYQQKPGKAPKLLIHYTNNLHTGIPSRFSGSGSGTDYTLTISSLQPEDFATYYCLQHSSRWTFGGGTKVEIK
5 | binds |  |  |  | binds | Antibody C (AbC) (antibody, IgG1, V domains shown) VH: EVQLVESGGGLVQPGGSLRLSCAASGFTFNNYWMTWVRQAPGKGLEWVSSISSSGGSIYYPDSVKDRFTISRDNAKNSLYLQMNSLRAEDMAVYYCARLYYYDGGGDAWGQGTLVTVSS VL: GIQMTQSPSSLSASVGDRVTITCKASQDINKYLDWYQQKPGKAPKLLIYNTNNLHTGIPSRFSGSGSGTDYTLTISSLQPEDFATYYCLQHISRWTFGGGTKVEIK
6 | binds |  |  |  |  | AbB_D265C_LALA_H435A (antibody, human IgG1, kappa, L234A L235A, V domains shown) VH: EVQLVESGGGLVQPGGSLRLSCAASGFTFTNFWMAWIRQAPGKGLEWVASISSSGGSIYYPDSVKDRFTISRDNSKNTLYLQMNSLRAEDTAVYYCVKFHHYSGGGDAWGQGTLVTVSS VL: DIQMTQSPSSLSASVGDRVTITCKASQNINKYLDWYQQKPGKAPKLLIHYTNNLHTGIPSRFSGSGSGTDYTLTISSLQPEDFATYYCLQHSSRWTFGGGTKVEIKR
7 | binds |  |  |  | binds | Antibody A (AbA) (antibody, V domains shown) VH: EVQLLESGGGLVQPGGSLRLSCAASGFTFNNYWMTWVRQAPGKGLEWVSSISSSGGSIYYPDRVKGRFTISRDNSKNTLYLQMNSLRAEDTAVYYCARDERWAGAMDAWGQGTTVTVSS VL: DIQMTQSPSSLSASVGDRVTITCKASQNINKNLDWYQQKPGKAPKLLIYETNNLQTGVPSRFSGSGSGTDFTLTISSLQPEDFATYYCYQHNSRFTFGQGTKLEIK
8 | binds |  |  |  |  | AbA_D265C_LALA_H435A (antibody, human IgG1, kappa, L234A L235A, V domains shown) VH: EVQLLESGGGLVQPGGSLRLSCAASGFTFNNYWMTWVRQAPGKGLEWVSSISSSGGSIYYPDRVKGRFTISRDNSKNTLYLQMNSLRAEDTAVYYCARDERWAGAMDAWGQGTTVTVSS VL: DIQMTQSPSSLSASVGDRVTITCKASQNINKNLDWYQQKPGKAPKLLIYETNNLQTGVPSRFSGSGSGTDFTLTISSLQPEDFATYYCYQHNSRFTFGQGTKLEIKR
